Reference: article PMC10957081
These are yes or no findings as the source states them, for the method shown. In cells and extracts the contact can be indirect.

Protein sequences, listed by entry. Tags and fused reporters are not part of them. Residues count along the entry.
UniProt O00206, residues 24-839: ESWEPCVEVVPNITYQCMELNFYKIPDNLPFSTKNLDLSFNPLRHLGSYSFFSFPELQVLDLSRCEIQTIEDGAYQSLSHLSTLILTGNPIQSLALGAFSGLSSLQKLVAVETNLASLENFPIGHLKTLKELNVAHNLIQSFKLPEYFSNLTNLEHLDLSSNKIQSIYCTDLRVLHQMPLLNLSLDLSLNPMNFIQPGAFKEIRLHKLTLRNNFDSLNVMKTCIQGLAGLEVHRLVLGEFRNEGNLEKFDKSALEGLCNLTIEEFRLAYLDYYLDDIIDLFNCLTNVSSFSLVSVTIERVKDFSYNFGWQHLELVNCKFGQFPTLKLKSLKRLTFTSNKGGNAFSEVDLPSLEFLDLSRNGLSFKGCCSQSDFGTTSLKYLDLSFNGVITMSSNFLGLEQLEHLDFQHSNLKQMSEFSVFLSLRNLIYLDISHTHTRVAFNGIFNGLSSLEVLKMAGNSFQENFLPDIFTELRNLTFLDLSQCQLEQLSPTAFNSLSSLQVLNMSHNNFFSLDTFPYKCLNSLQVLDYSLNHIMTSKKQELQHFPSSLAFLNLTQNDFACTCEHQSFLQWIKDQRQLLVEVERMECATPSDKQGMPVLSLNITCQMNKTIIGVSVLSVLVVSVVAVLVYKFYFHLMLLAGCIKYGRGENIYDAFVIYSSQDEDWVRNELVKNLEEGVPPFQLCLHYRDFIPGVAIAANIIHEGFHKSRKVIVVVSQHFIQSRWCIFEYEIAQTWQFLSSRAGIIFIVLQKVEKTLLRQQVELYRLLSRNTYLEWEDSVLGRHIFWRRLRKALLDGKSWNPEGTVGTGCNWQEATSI
UniProt P03146: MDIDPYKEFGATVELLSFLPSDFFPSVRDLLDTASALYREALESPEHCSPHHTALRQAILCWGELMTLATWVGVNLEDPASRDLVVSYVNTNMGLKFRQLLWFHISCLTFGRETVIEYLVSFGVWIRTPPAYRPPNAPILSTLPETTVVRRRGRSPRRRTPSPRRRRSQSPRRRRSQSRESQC

Target: TLR4 (toll-like receptor 4), endogenous in THP-1 macrophages (human (endogenous in THP-1)) (UniProt O00206)
Test: proximity ligation; THP-1 macrophages (PMA) incubated with GST, GST-HBeAg or HBcAg (10 μg/mL each) for 1 hour at 4°C, fixed with acetone, TLR4 and GST primary antibodies overnight at 4°C; Duolink PLA In Situ Red; only the binder purified

In the case of “HBcAg (hepatitis B virus core antigen), recombinant (from UniProt P03146 1-183)”, the binding is reported as “no binding (tested: 10 μg/mL)”.
